## Percent effect of library compounds

The chains behind the UniProt entries cited, without tags or fusion partners. Residues count along the entry.
UniProt A4I591, 1-473: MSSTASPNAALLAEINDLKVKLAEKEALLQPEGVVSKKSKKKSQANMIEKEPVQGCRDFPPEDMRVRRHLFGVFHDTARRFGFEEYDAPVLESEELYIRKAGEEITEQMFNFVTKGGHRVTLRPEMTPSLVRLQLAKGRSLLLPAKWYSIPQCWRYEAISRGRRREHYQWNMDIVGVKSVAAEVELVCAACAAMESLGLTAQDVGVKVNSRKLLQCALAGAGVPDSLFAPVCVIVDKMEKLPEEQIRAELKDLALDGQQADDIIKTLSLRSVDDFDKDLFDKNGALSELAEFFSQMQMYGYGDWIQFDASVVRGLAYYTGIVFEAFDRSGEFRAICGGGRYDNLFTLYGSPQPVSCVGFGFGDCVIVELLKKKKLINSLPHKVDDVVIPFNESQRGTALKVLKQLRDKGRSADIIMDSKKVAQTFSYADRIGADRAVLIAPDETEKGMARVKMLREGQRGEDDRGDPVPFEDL
UniProt P9WFT3, whole entry: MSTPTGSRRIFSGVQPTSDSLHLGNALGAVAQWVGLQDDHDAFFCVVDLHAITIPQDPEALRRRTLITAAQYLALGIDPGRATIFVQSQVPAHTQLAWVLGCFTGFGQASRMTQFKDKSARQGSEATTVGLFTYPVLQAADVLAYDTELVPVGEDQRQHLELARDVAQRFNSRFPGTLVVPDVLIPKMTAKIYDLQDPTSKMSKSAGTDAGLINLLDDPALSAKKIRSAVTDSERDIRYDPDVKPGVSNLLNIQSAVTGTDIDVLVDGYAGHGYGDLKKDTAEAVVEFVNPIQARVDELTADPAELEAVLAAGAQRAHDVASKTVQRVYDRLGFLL
UniProt P9WNZ1, whole entry: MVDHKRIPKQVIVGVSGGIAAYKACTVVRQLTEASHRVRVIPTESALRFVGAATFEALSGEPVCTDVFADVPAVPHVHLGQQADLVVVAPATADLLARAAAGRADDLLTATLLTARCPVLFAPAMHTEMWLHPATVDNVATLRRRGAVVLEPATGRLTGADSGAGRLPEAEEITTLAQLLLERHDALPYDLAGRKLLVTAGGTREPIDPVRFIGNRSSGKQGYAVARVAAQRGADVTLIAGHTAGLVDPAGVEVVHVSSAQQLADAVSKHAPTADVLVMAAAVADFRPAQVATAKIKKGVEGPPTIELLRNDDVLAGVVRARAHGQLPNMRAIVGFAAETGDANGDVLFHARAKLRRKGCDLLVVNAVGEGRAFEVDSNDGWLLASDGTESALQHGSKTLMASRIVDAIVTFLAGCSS

Measurements from “University of Dundee, Small-Polar-MMV Screening Library” (2021), ChEMBL document CHEMBL3988442.

LiHisRS: 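Histidine-tRNA ligase, Leishmania infantum (UniProt A4I591). Enzyme assay of histidyl-tRNA synthetase; the read-out is not stated. Concentration: 30 µM. Direction is inferred from retests: higher values go with stronger inhibition. The assay is labelled LdHisRS but filed under L. infantum. Of about 69,000 compounds tested this way, about 410 (0.6%) reached 50% or more in at least one test.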
MtTrpRS: 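Tryptophan-tRNA ligase, Mycobacterium tuberculosis (UniProt P9WFT3). Enzyme assay of tryptophanyl-tRNA synthetase; the read-out is not stated. Tested at 10 µM. Direction is not recorded; retested compounds ran higher, which suggests that high means inhibition. Of about 65,000 compounds tested this way, about 64 (0.098%) reached 50% or more in at least one test.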
CoaBC: 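Enzyme assay of CoaBC with a phosphate dye (Biomol Green) read at 650 nm. Target: Coenzyme A biosynthesis protein CoaBC, Mycobacterium tuberculosis (UniProt P9WNZ1). Tested at 30 µM. Higher reads as stronger inhibition, judged from the few compounds that gave an IC50. Most strong results did not repeat in a second test. About 67,000 compounds were tested under these conditions; 0.06% (about 40) showed 50% or more at least once.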

The filed quantity is “Percent Effect” (%).
The controls that fix the scale are not given in the record; negative values are as filed.
This is an unselected part of the compounds tested.
Two or more numbers in one place are separate tests of the same structure; such repeats can differ widely.
A dash means the value is not listed here; it may have been measured.

structure,LiHisRS,MtTrpRS,CoaBC
CCCc1noc(-c2ccc(-n3ncc(C(=O)O)c3C)nc2)n1,18.68,0.4619,-5.896
CCCOc1ccc2ccccc2c1CN1CC[C@@]2(O)CCNC[C@H]2C1,7.018,-9.366,-53.81
COc1cc(OC)cc(C(=O)N2CCOCC2c2[nH]ncc2C)c1 (stereo not given),14.49,14.93,-12.88
CCCC(=O)Nc1ccc(CC(=O)N(C)CCc2cn[nH]c2)cc1,7.292,-7.534,-0.8929
O=C(Cn1cncn1)NCC1CCN(Cc2ccccc2Cl)CC1,16,2.697,-0.495
Cc1nn(CN(Cc2ccsc2)C2CC2)c(=O)c2noc(C)c12,3.333,-0.5093,-0.9756
c1cc(CO[C@@H]2CN(Cc3ccoc3)[C@@H]3CCCO[C@@H]32)ccn1,11.82,-,4.198
Cc1nc(-c2ccccc2)n(CC(=O)NC(C)C2CC2)n1 (stereo not given),17.65,-2.017,2.114
Cc1cc(C(=O)N2CCC(Nc3cccnc3)CC2)c(C)s1,18.09,2.65,12.76
Cc1noc(C2CCN(C(=O)CCc3nccs3)CC2)n1,-10.64,-5.271,-3.886
Cc1nn(CC(=O)O)c(C)c1NS(=O)(=O)c1cccc2ccccc12,14.29,-2.16,0.7282
O=C(NCc1cc[nH]n1)N1CCC(Oc2ccccc2Cl)CC1,9.948,10.89,8.696
O=C1CC(c2cccnc2)c2c(c(C(=O)O)cn2-c2cccc(F)c2)N1 (stereo not given),27.17,3.421,0.3632
Cc1nc(N2CCCC2)nc2c1CCN(Cc1ccoc1)CC2,32.89,-6.882,3.738
CC(C)c1[nH]c2ncccc2c1CN1CCC(O)CC1,12.77,-6.223,6.701 & 24.42
Cc1cc(C(=O)NCc2ccc(-c3n[nH]cc3C(=O)N(C)C)cc2)on1,11.51,-3.776,2.153
N#Cc1ccccc1OCCN1CCC(C(=O)N2CCOCC2)CC1,23.08,-4.204,12.8
COc1cccc(OCC(=O)N2CCC3(CC2)[C@H](O)C[C@@H]3OC)c1,19.67,-0.6299,-1.79
Cc1ccc(NC2CCN(C(=O)CCNc3ncccn3)CC2)nn1,12.5,-10.6,10.53
Cc1ccc(NC2CCN(C(=O)c3cscn3)CC2)nn1,5.769,1.16,0.4779
Cc1csc(CN(C)C(=O)C2CCC(=O)N(CCN(C)C)C2)n1 (stereo not given),-5.333,-2.031,6.612
O=C(NCCc1ccccc1)c1cn(CCNCc2cccnc2)nn1,0,0.895,-17.49
CC(C)n1cc(S(=O)(=O)N2CCCCC2)cn1,15.53,6.834,-10.36
CN(Cc1nccn1C)C(CO)c1cccc(Br)c1 (stereo not given),8.434,1.632,5.443
CN(C)C(C(=O)N1CCCN(C(=O)C2CCC2)CC1)c1ccccc1F (stereo not given),6.061,0.277,5.325
O=C(c1cc[nH]n1)N1CCc2c(nc(N3CCCCC3)[nH]c2=O)C1,1.042,-,-4.167
CC1=C(C(N)=O)C(c2cn(C)nc2C)N2C(=O)CSC2=N1 (stereo not given),7.965,-3.614,3.738
COc1ccccc1CCNC(=O)N(C)C(C)CS(C)(=O)=O (stereo not given),15.56,0.7988,5.353
CC(=O)c1cccc(C(=O)N2C[C@@H](CN3CCCCCC3)[C@@H](CO)C2)c1,15.62,-5.74,3.342
CC(C)c1noc(CN2CCC(c3ccnn3CCO)CC2)n1,7.143,-1.428,12.5
CN(Cc1cccnc1)C1CCCN(Cc2noc(C3CC3)n2)C1 (stereo not given),12.84,17.26,-0.2558
CCSc1ccc(C(=O)NCCc2nnc(-c3ccco3)[nH]2)cn1,15.18,6.01,6.612
O=S(=O)(c1ccc(F)cc1)N1CCCn2cnc(CN3CCCC3)c2C1,31.43,2.116,-5.537
O=C(Cc1n[nH]c2ccccc12)N1CCCCC1Cn1cccn1 (stereo not given),7.143,-4.802,11.59
CC(NC(=O)c1ccc(C#N)cn1)C1(N2CCOCC2)CCCC1 (stereo not given),5.208,-2.58,8.929
O=C(NCC1CC1)[C@@H]1CCO[C@@H]2CCN(Cc3ccsc3)C[C@H]21,20,-0.9382,-0.25
Cc1nn(-c2ccc(C(=O)O)cc2)c2c1C(CC(C)C)SCC(=O)N2 (stereo not given),10.42,2.287,-3.452
Cc1nc(C)n(CC2CCCCN2CCC(=O)Nc2cc(C)on2)n1 (stereo not given),21.62,-0.09747,-2.089
CCc1c(C)nn(CC(=O)NC(C)c2n[nH]c(C)n2)c1C (stereo not given),16,2.835,7.178
c1cnn(CC2CN(Cc3noc(C4CC4)n3)CCO2)c1 (stereo not given),12.16,0.2534,1.695
CC(C)(C)c1noc(CCCC(=O)N2CCNC(=O)C2)n1,9.804,-0.7401,12.64
Cc1ccc(C(=O)N(C)Cc2cc(Br)cs2)cn1,15.73,6.31,1.805
CC(C)CSCCCNC(=O)C1CCOCC1,14.46,-3.765,4.854
CN(Cc1ccc2c(c1)OCO2)C(=O)NCCc1cnn(C)c1,12.84,9.095,6.351
CC(=O)N1CCCC2(CN(Cc3ccncc3)CCO2)C1 (stereo not given),20,-0.4882,6.189
CN(Cc1ccco1)C1CCC12CCN(C(=O)N1CCCC1)CC2 (stereo not given),19.42,-5.74,3.053
CCSCC(C)NCc1cc(-c2ccco2)on1 (stereo not given),9.836,0.6441,-0.2165
Cc1nc(-c2cccc(N3CCC(N4CCCC4)CC3)c2)cs1,20.83,-0.4566,4.567
NC(=O)c1ccc(OCC(=O)N2CCCC(n3cccn3)C2)cc1 (stereo not given),10.67,5.082,-4.103
OC(CN(Cc1ccccc1)Cc1ccon1)c1cccs1 (stereo not given),0,-1.2,-9.27
O=C1C[C@@H]2[C@H](CCN2Cc2ccccn2)N1Cc1ccncc1,17.31,-2.18,7.593
O=C1CC(c2cccs2)Cc2[nH]c(=O)c(C(=O)NC3CCCC3)cc21 (stereo not given),8.333,2.462,5.782
Cn1cc(CN2CCc3c(c(COCC#N)nn3C)C2)cn1,15.53,-4.608,5.089
O=C(CC1CC1)NCc1cn2c(n1)CN(Cc1cccnc1)CC2,0,-7.49,6.091
COCc1nc(C(=O)N2CCCC2c2c(C)nn(C)c2C)cs1 (stereo not given),5.405,-3.021,-4.178
COc1cc(N2C[C@H](C(=O)NC3CC3)[C@@H]3CCO[C@@H]3C2)ncn1,3.226,-1.652,1.603
CN(C)CCN1CC(C(=O)N(C)Cc2cc3cc(F)ccc3[nH]2)CC1=O (stereo not given),14.75,-0.9762,2.751

Some entries from above, unchanged:

structure,LiHisRS,MtTrpRS,CoaBC
CCCOc1ccc2ccccc2c1CN1CC[C@@]2(O)CCNC[C@H]2C1,7.018,-9.366,-53.81
Cc1cc(C(=O)N2CCC(Nc3cccnc3)CC2)c(C)s1,18.09,2.65,12.76
Cc1nc(C)n(CC2CCCCN2CCC(=O)Nc2cc(C)on2)n1 (stereo not given),21.62,-0.09747,-2.089
Cc1ccc(C(=O)N(C)Cc2cc(Br)cs2)cn1,15.73,6.31,1.805
O=C(NCc1cc[nH]n1)N1CCC(Oc2ccccc2Cl)CC1,9.948,10.89,8.696
COc1cccc(OCC(=O)N2CCC3(CC2)[C@H](O)C[C@@H]3OC)c1,19.67,-0.6299,-1.79